Experimental data: PubChem BioAssay AID504793 (Drosophila RNAi Screening Center, 2011)

Screen: 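Whole-genome screen for parts of the DNA damage checkpoint at G2/M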 (primary screen)
System: Drosophila S2R+ cells
Knock-down reagent: long dsRNA against Drosophila genes, about 0.25 µg dsRNA per well
Time to read-out: 4 days of dsRNA, then 4 hours of drug before read-out
Treatment: doxorubicin 0.5 µM for 4 hours to cause double-strand breaks, in cells also given a low, harmless dose of dsRNA against nbs to sensitise the assay
Detection: 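Mitotic index as the number of phospho-histone H3-positive cells in each well following doxorubicin, given as raw counts without normalisation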
Reading the numbers: mitotic cells: higher = more cells in mitosis, weaker G2 arrest
Active means: 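a call needs confirmation in secondary tests, with other dsRNAs and a check of mitotic timing without damage, not just a high primary count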
Calls: active = confirmed in follow-up tests; inactive = not confirmed
The deposit covers about 23,000 reagents; this is a random part of those that have a named target and a result. In the full data, 62 (0.27%) are marked active. 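Calls come from follow-up tests whose scores are not deposited, so confirmed genes may have low counts here; counts are not normalised per plate.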 The raw values are shown without normalisation. A number with no mark means an inactive call. A plus sign joins genes that one reagent is predicted to hit.

target	DRSC id	mitotic cells, replicate 1
SmydA-5	DRSC04867	6
SmydA-5	DRSC27930	10
nclb	DRSC07009	4
CR33283	DRSC22918	14
CG6912	DRSC16132	9
CG8032	DRSC16365	9
CG8032	DRSC29586	8
CG15548	DRSC15086	9
CG15548	DRSC26941	1
CG33695 + cana	DRSC01163	5
CG33695 + cana	DRSC03503	8
Cad87A	DRSC16161	5
Cad87A	DRSC29158	5
CG5068	DRSC10476	8
OtopLa	DRSC18133	7
OtopLa	DRSC23226	6
OtopLa	DRSC29861	8
Ass + CG31286	DRSC12493	7
gammaSnap1	DRSC04686	4
gammaSnap1	DRSC28381	4
CG13029	DRSC09909	7
fzr	DRSC18781	15
fzr	DRSC28236	5
larp	DRSC14728	16
larp	DRSC16984	9
larp	DRSC21856	12
larp	DRSC24427	5
larp	DRSC28325	6

Look-ups from the list.
Entry of SmydA-5 [DRSC27930] under “mitotic cells, replicate 1”: 10
Under “mitotic cells, replicate 1”, CG15548 [DRSC26941] reads 1
Value for gammaSnap1 [DRSC04686] under “mitotic cells, replicate 1”: 4

The listing continues.
target	DRSC id	mitotic cells, replicate 1
CG11668	DRSC14341	7
Mbs	DRSC09414	6
Mbs	DRSC10525	7
Mbs	DRSC10553	2
Mbs	DRSC24459	3
CG30457	DRSC06661	6
CG30457	DRSC28490	4
sei	DRSC04713	8
sei	DRSC29359	7
CG17287	DRSC06659	12
Su(z)2	DRSC22970	8
CG32533	DRSC19443	6
CG32533	DRSC19553	7
CG32533	DRSC24560	1
CG15127	DRSC05802	12
CG15127	DRSC06549	7
dsx-c73A	DRSC09435	9
dsx-c73A	DRSC09914	5
dsx-c73A	DRSC10429	3
